Test results: patent US9730448B2, “Tetrazolinone compound and use of same” (Sumitomo Chemical Company, Limited, priority 2013, dated 2017)
Some results were stated once for a whole list of compounds, not compound by compound. For at least one compound, name, drawing or mass did not settle the structure.

Legend:
Assay type in all cases: in vivo
[1] = test system: wheat leaf blotch fungus (Septoria tritici); test: Test Example 5: control of wheat leaf blotch, foliar spray on wheat; details: 500 ppm water dilution sprayed on wheat (APOGEE); inoculated after 4 days; investigated after 3 days high humidity + 14 to 18 days illumination
[2] = test system: soybean rust fungus (Phakopsora pachyrhizi); test: Test Example 7: control of soybean rust, foliar spray on soybean; details: 500 ppm water dilution sprayed on soybean (KUROSENGOKU); inoculated after 2 days; investigated after 3 days high humidity + 14 days greenhouse
[3] = test system: kidney bean stem rot fungus (Sclerotinia sclerotiorum); test: Test Example 4: control of kidney bean stem rot, foliar spray on kidney bean; details: 500 ppm water dilution sprayed on kidney bean (NAGAUZURA SAITOU); PDA medium with hyphae placed on leaves; investigated four days after inoculation
[4] = test system: barley scald fungus (Rhynchosporium secalis); test: Test Example 8: control of barley scald, foliar spray on barley; details: 500 ppm water dilution sprayed on barley (MIKAMO GOLDEN); inoculated after 2 days; investigated after 3 days high humidity + 7 days greenhouse
[5] = test system: cucumber anthracnose fungus (Colletotrichum lagenarium); test: Test Example 10: control of cucumber anthracnose, foliar spray on cucumber; details: 500 ppm water dilution sprayed on cucumber (SAGAMI HANJIRO); inoculated after one day; investigated after 1 day high humidity + 6 days greenhouse

Compound	area of lesion spots on the treated plant relative to that on an untreated plant [1]	area of lesion spots on the treated plant relative to that on an untreated plant [2]	area of lesion spots on the treated plant relative to that on an untreated plant [3]	area of lesion spots on the treated plant relative to that on an untreated plant [4]	area of lesion spots on the treated plant relative to that on an untreated plant [5]
Cc1csc(-c2ccc(OCc3c(C)cccc3-n3nnn(C)c3=O)c(C)c2)n1 [compound 34]	≤ 30%	≤ 30%	≤ 30%	≤ 30%	–
Cc1cc(-c2ccsc2)ccc1OCc1c(C)cccc1-n1nnn(C)c1=O [compound 13]	≤ 30%	–	≤ 30%	≤ 30%	≤ 30%
Cc1cc(C2=NCCO2)ccc1OCc1c(C)cccc1-n1nnn(C)c1=O [compound 23]	≤ 30%	≤ 30%	≤ 30%	≤ 30%	≤ 30%
Cc1cc(-c2ccco2)ccc1OCc1c(C)cccc1-n1nnn(C)c1=O [compound 11]	≤ 30%	–	≤ 30%	≤ 30%	≤ 30%
Cc1cc(-c2cccn2C)ccc1OCc1c(C)cccc1-n1nnn(C)c1=O [compound 22]	–	–	–	≤ 30%	–
Cc1cc(-c2ccc(Cl)s2)ccc1OCc1c(C)cccc1-n1nnn(C)c1=O [compound 8]	–	–	–	≤ 30%	–
Cc1cc(-c2ncco2)ccc1OCc1c(C)cccc1-n1nnn(C)c1=O [compound 10]	–	–	–	≤ 30%	≤ 30%
Cc1cnc(-c2ccc(OCc3c(C)cccc3-n3nnn(C)c3=O)c(C)c2)s1 [compound 4]	–	–	≤ 30%	–	≤ 30%
Cc1cc(-c2nc(C)c(C)n2C)ccc1OCc1c(C)cccc1-n1nnn(C)c1=O [compound 20]	–	–	–	≤ 30%	–
Cc1csc(-c2ccc(OCc3c(C)cccc3-n3nnn(C)c3=O)c(C)c2)c1 [compound 12]	≤ 30%	–	–	≤ 30%	≤ 30%
Cc1cc(-c2ccoc2)ccc1OCc1c(C)cccc1-n1nnn(C)c1=O [compound 2]	≤ 30%	–	≤ 30%	≤ 30%	≤ 30%
CCOc1nc(-c2ccc(OCc3c(C)cccc3-n3nnn(C)c3=O)c(C)c2)cs1 [compound 40]	–	–	–	≤ 30%	–
Cc1cc(C2=NCCS2)ccc1OCc1c(C)cccc1-n1nnn(C)c1=O [compound 24]	≤ 30%	–	≤ 30%	≤ 30%	≤ 30%
CSc1nc(-c2ccc(OCc3c(C)cccc3-n3nnn(C)c3=O)c(C)c2)cs1 [compound 39]	–	–	≤ 30%	≤ 30%	–
Cc1cc(-c2nc(C#N)cs2)ccc1OCc1c(C)cccc1-n1nnn(C)c1=O [compound 50]	–	–	–	–	≤ 30%
COc1cccc(-n2nnn(C)c2=O)c1COc1ccc(-c2nc(C)cs2)cc1C [compound 35]	≤ 30%	≤ 30%	≤ 30%	≤ 30%	–
Cc1cc(-c2scnc2C)ccc1OCc1c(C)cccc1-n1nnn(C)c1=O [compound 26]	–	–	–	≤ 30%	≤ 30%
Cc1cc(-c2ccsn2)ccc1OCc1c(C)cccc1-n1nnn(C)c1=O [compound 48]	≤ 30%	–	≤ 30%	≤ 30%	≤ 30%
Cc1nc(-c2ccc(OCc3c(C)cccc3-n3nnn(C)c3=O)c(C)c2)cs1 [compound 9]	≤ 30%	–	≤ 30%	≤ 30%	≤ 30%

Compound	area of lesion spots on the treated plant relative to that on an untreated plant [1]	area of lesion spots on the treated plant relative to that on an untreated plant [2]	area of lesion spots on the treated plant relative to that on an untreated plant [3]	area of lesion spots on the treated plant relative to that on an untreated plant [4]	area of lesion spots on the treated plant relative to that on an untreated plant [5]
CCc1cccc(-n2nnn(C)c2=O)c1COc1ccc(-c2nc(C)cs2)cc1C [compound 33]	≤ 30%	≤ 30%	≤ 30%	≤ 30%	–
Cc1cc(-n2cncn2)ccc1OCc1c(C)cccc1-n1nnn(C)c1=O [compound 17]	–	–	≤ 30%	≤ 30%	–
Cc1cc(-c2sccc2C#N)ccc1OCc1c(C)cccc1-n1nnn(C)c1=O [compound 7]	–	–	–	–	≤ 30%
Cc1cc(-c2nc(C)c(C)s2)ccc1OCc1c(C)cccc1-n1nnn(C)c1=O [compound 25]	≤ 30%	–	–	≤ 30%	≤ 30%
Cc1cc(-n2ccnc2)ccc1OCc1c(C)cccc1-n1nnn(C)c1=O [compound 18]	–	–	≤ 30%	≤ 30%	–
Cc1cc(-c2nc(Br)cs2)ccc1OCc1c(C)cccc1-n1nnn(C)c1=O [compound 45]	–	–	–	≤ 30%	–
Cc1cc(-c2nc(Br)ns2)ccc1OCc1c(C)cccc1-n1nnn(C)c1=O [compound 5]	–	–	≤ 30%	≤ 30%	≤ 30%
Cc1nc(-c2cc(C)c(OCc3c(C)cccc3-n3nnn(C)c3=O)cc2C)c(C)s1 [compound 49]	–	–	–	≤ 30%	≤ 30%
Cc1cc(-n2ccnn2)ccc1OCc1c(C)cccc1-n1nnn(C)c1=O [compound 16]	–	–	–	≤ 30%	–
COc1cccc(-n2nnn(C)c2=O)c1COc1ccc(-c2cnc(C)s2)cc1C [compound 30]	≤ 30%	–	≤ 30%	≤ 30%	–
Cc1nc(C)c(-c2ccc(OCc3c(C)cccc3-n3nnn(C)c3=O)c(C)c2)s1 [compound 37]	–	–	≤ 30%	≤ 30%	≤ 30%
CCc1nc(-c2ccc(OCc3c(C)cccc3-n3nnn(C)c3=O)c(C)c2)cs1 [compound 44]	–	≤ 30%	≤ 30%	≤ 30%	–
Cc1cc(-n2nccn2)ccc1OCc1c(C)cccc1-n1nnn(C)c1=O [compound 15]	–	–	≤ 30%	≤ 30%	≤ 30%
Cc1csc(-c2ccc(OCc3c(C4CC4)cccc3-n3nnn(C)c3=O)c(C)c2)n1 [compound 32]	≤ 30%	–	≤ 30%	≤ 30%	–
Cc1cc(-c2nccs2)ccc1OCc1c(C)cccc1-n1nnn(C)c1=O [compound 27]	≤ 30%	–	≤ 30%	≤ 30%	≤ 30%
Cc1cc(N2CCCC2=O)ccc1OCc1c(C)cccc1-n1nnn(C)c1=O [compound 57]	≤ 30%	–	–	≤ 30%	–
Cc1cc(-n2ncnn2)ccc1OCc1c(C)cccc1-n1nnn(C)c1=O [compound 19]	–	–	–	≤ 30%	–
Cc1cc(-c2cncs2)ccc1OCc1c(C)cccc1-n1nnn(C)c1=O [compound 43]	–	–	≤ 30%	≤ 30%	–
